# Test results from patent publication US12343363B2, “Lactic acid bacterial composition for the treatment of bacterial vaginal infections by Gardnerella vaginalis and, if present, of concurrent fungal infections” (PROBIOTICAL S.P.A., priority 2016, dated 2025).
# Test system: Candida albicans ATCC 10231
# Assay: Fluconazole MIC by E-test
# Format: cell-based
# Settings: ATCC10231, E_test, range 0.016-256 μg/ml, read-out: MIC (minimum inhibitory concentration)
# Excerpt: The strains of Candida being used in the present study were purchased from the American Type Culture Collection (ATCC). Specifically, the following biotypes were used: C. albicans ATCC 10231, C. parapsilosis ATCC 22019, C. krusei ATCC 6258, C. glabrata ATCC 2001 and C. tropicalis ATCC 750 (14). The strains of lactobacilli of this study, all isolated from vaginal swabs of healthy female subjects or directly brushing the intestinal mucosa of healthy humans, were classified based on their phenotypic and genotypic characteristics: L. fermentum LF5 (DSM 32277), L. fermentum LF09 (DSM 18298), L. fermentum LF10 (DSM 19187) and L. fermentum LF11 (DSM 19188).
# Evaluation of the fungicidal activity. The minimum inhibitory concentration (MIC) for fluconazole was determined by E-test (bioMerieux Italy, Florence) with MHE agar. The plates were incubated under aerobic conditions at 30° C. and read after 24 hours. Furthermore, since there is no specific E-test for miconazole, the MIC was determined by using the broth macrodilution method. We assessed the activity of serially diluted fluconazole and miconazole (Sigma-Aldrich, Missouri, USA) (from […] to […]) against the Candida strains. […]
smiles,measurement,value
OC(Cn1cncn1)(Cn1cncn1)c1ccc(F)cc1F [fluconazole],MIC,> 256 mg/L
